Results from paper PMC7819943, “Rice protein-binding microarrays: a tool to detect cis-acting elements near promoter regions in rice”.
Some of the results follow.

Amino acid sequences for entries named in this document (tags omitted).
UniProt Q0JBA9, entry or part of it: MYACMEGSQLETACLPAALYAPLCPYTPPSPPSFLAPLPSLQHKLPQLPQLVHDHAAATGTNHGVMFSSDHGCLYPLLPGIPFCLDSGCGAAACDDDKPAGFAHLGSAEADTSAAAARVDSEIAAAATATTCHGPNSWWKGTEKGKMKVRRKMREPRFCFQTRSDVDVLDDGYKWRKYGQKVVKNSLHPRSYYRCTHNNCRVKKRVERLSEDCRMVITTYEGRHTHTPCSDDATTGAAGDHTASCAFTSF

target: OsWRKY34 (Oryza sativa, UniProt Q0JBA9 1-250); experiment: protein-binding microarray (RPBM); PBS, 2% BSA, 51.3 ng/ul salmon testes DNA, 50 uM zinc acetate, 200 nM TF, 25 C, 1 h; high values mean tight binding; details: protein: recombinant; tags: N-terminal polyhistidine and DsRed monomer fusion (pET32a); label: CyDye5-dUTP incorporated in the synthesized complementary strand; 3' TTTTT single-stranded linker to array surface; dsDNA, one strand shown
How it was run: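 In PBS with 2% BSA, salmon testes DNA and 50 µM zinc acetate, 200 nM protein was incubated on a custom Agilent array at 25 °C for 1 h and then washed off. The array had been made double-stranded by primer extension with Cy5-dUTP and blocked with 2% BSA. The proteins were transcription factors fused N-terminally to polyhistidine and DsRed, expressed in E. coli BL21-CodonPlus and purified on Ni–NTA. The binding signal is per-feature fluorescence intensity (arbitrary units) from an Axon 4000B scanner.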

Sequence | binding signal
CTATCCTTTACATGTTTTATATGTTGCCACTTTCATATGTCGGAGTCACCTAGTGCAG | 10800 fluorescence intensity (a.u.)
TTATAACATCTCTAGCTTCCTTTTCTAACCGTTTAACTTTCGGAGTCACCTAGTGCAG | 8410 fluorescence intensity (a.u.)
ACGTTGATTATATATCAAAATAGCGTTGACTAATAAGCAACGGAGTCACCTAGTGCAG | 8240 fluorescence intensity (a.u.)
CGCCGCCACCGCGACTCCTCGCATTCGTCCCCACCACATCCGGAGTCACCTAGTGCAG | 9990 fluorescence intensity (a.u.)
ATGAAGAGATTAGTTAGGGATTTGGTTGGATTGGATTGGACGGAGTCACCTAGTGCAG | 10700 fluorescence intensity (a.u.)
TTAGTGATCGTTTCCAGTCAAGCCGGCCTCGAATTAATTCCGGAGTCACCTAGTGCAG | 10200 fluorescence intensity (a.u.)
TACCAACATTGTAGCAACAGATTCATCTCTCTTTTTTTTTCGGAGTCACCTAGTGCAG | 18100 fluorescence intensity (a.u.)
AAGTCAAATCACCTCGCTCGCTTTGCTTCGACGAAACTTCCGGAGTCACCTAGTGCAG | 8920 fluorescence intensity (a.u.)
CCCCGAGCCCAAGCCTCTAGCTTGGCTCCGCCCAACCCACCGGAGTCACCTAGTGCAG | 8930 fluorescence intensity (a.u.)
TTTGGTCTGAGATAATTTCTTTTCCATTTCCCCATTCCTTCGGAGTCACCTAGTGCAG | 8210 fluorescence intensity (a.u.)
TTTCCTTCGGCCATTGTTCTTACTGAAAGCAATATTTTCTCGGAGTCACCTAGTGCAG | 8050 fluorescence intensity (a.u.)
GACATGACCCCTCGATCGTCCGCCACGTGTCGCGCGCCATCGGAGTCACCTAGTGCAG | 8390 fluorescence intensity (a.u.)
CTGCTGTGTTGTTTTCCTTTGCTAGATATTGAATCTGCAGCGGAGTCACCTAGTGCAG | 10400 fluorescence intensity (a.u.)
GCCTTGAGCATCACCGTCCTCAGCATCCTCGCGCTGTCAACGGAGTCACCTAGTGCAG | 11100 fluorescence intensity (a.u.)
AACACGCCCTGATCTACGAAACCATCCATCCGTTCCAAATCGGAGTCACCTAGTGCAG | 9230 fluorescence intensity (a.u.)
TCACCTGATCAAGTACGCGTTTTTGGCCCTCAAAAGTATTCGGAGTCACCTAGTGCAG | 8120 fluorescence intensity (a.u.)
TCGAGTTATTCGTCTTCCATAGCTGCATTGTTGACTCACTCGGAGTCACCTAGTGCAG | 11000 fluorescence intensity (a.u.)
CATGTGCTTCGCGCCCTTTGCTTCATATATACCCCTGGCACGGAGTCACCTAGTGCAG | 8550 fluorescence intensity (a.u.)
TCATATAGTTGCAACGATCTCTTTTAGCTTGTGTTGCACTCGGAGTCACCTAGTGCAG | 8200 fluorescence intensity (a.u.)
ATATATATATATATCCTATTTCTATAATAAATTTTACTTTCGGAGTCACCTAGTGCAG | 8030 fluorescence intensity (a.u.)
ATCACGGAGGAGGCGTTCGGGGAGGGAGGGTGGGGCGCGCCGGAGTCACCTAGTGCAG | 24400 fluorescence intensity (a.u.)

Sequence | binding signal
GTGTGGGTGTGTGTCTAATGTGTAATTGAATAAAAAAAATCGGAGTCACCTAGTGCAG | 12000 fluorescence intensity (a.u.)
CACCACGTCGCGCGCATGCCCCGTCTCCTCCTATAAAATACGGAGTCACCTAGTGCAG | 8600 fluorescence intensity (a.u.)
TCATATCTGGTTCGCTGTTCTTATGTGAAGTTGCTCTGTCCGGAGTCACCTAGTGCAG | 10500 fluorescence intensity (a.u.)
CGCTCGCGGCGCTGACCACCGTGAACCGGTCGATGGCCACCGGAGTCACCTAGTGCAG | 8230 fluorescence intensity (a.u.)
GCCTCCGTGTCCATTGCAGTGGTGGGTGGTGTTGTGGAGCCGGAGTCACCTAGTGCAG | 9960 fluorescence intensity (a.u.)
AATAGTGGTAGGGACGGGATCTTCACGCGAGTATGACAATCGGAGTCACCTAGTGCAG | 10200 fluorescence intensity (a.u.)
GACCGTATCAGGGACGTATCCTGCTTTTTTTCTTTTTCGGCGGAGTCACCTAGTGCAG | 11400 fluorescence intensity (a.u.)
ATTATGTGATGCTCACTGTCTATATGCTATTCCTGCTGTACGGAGTCACCTAGTGCAG | 8070 fluorescence intensity (a.u.)
AACGTACTAGGGCTACAGTATCTTTTTACACGCATCCGGTCGGAGTCACCTAGTGCAG | 8210 fluorescence intensity (a.u.)
TAGGGTGCTGTACATTCCTTCAGTTGTTGGTACTGTCGACCGGAGTCACCTAGTGCAG | 9040 fluorescence intensity (a.u.)
ACTGTTCCTCGACCCCGAGCTCACGGCCTCAATGGCGTCCCGGAGTCACCTAGTGCAG | 8110 fluorescence intensity (a.u.)
TTAATTAAGCAGGCGAATTCTTGTTTTTTTTTCTCTTCTACGGAGTCACCTAGTGCAG | 8290 fluorescence intensity (a.u.)
TGCTCGCGCCTTTCTTGCTTGTCTGCGCCGTCCGCGGCCGCGGAGTCACCTAGTGCAG | 14900 fluorescence intensity (a.u.)
TAACCCGGTTCTTCTACTACTACTAATCTACCTCAATTCCCGGAGTCACCTAGTGCAG | 8480 fluorescence intensity (a.u.)
CACTGGTTATTTTGGGGTAGAGGGAGTTTTTTTTAAAGAACGGAGTCACCTAGTGCAG | 14400 fluorescence intensity (a.u.)
CTACGATCAGAAACAGCGGGGCGGGTTGGGAGGGAGTCCACGGAGTCACCTAGTGCAG | 15800 fluorescence intensity (a.u.)
GAGATCCTTATCCTCTCGCTCTCACGGTCTCTCTCCCATTCGGAGTCACCTAGTGCAG | 9390 fluorescence intensity (a.u.)
GGCTTAATTTAGTTTTCGTTGTTTCCGCTCAAACAAATCCCGGAGTCACCTAGTGCAG | 8380 fluorescence intensity (a.u.)
TCGCATCTGAACTTGTCGCTCATTGGAATATTAATCATGTCGGAGTCACCTAGTGCAG | 9950 fluorescence intensity (a.u.)
CTTGTGCCGCTGCAGTCTGTAGGTCTCCTAAAATTCCTTCCGGAGTCACCTAGTGCAG | 8330 fluorescence intensity (a.u.)
GGTGGTGGTGGTGGTGGAGTGCGGCGGCGGGGATAGCCGCCGGAGTCACCTAGTGCAG | 11500 fluorescence intensity (a.u.)

Sequence | binding signal
TTTGCAATATCAGGGGTGTGTTACATATGTATTTCGATTTCGGAGTCACCTAGTGCAG | 12400 fluorescence intensity (a.u.)
TATTTGTGTTCAAACCCTTCCCACCGGTTTTAATTACTTACGGAGTCACCTAGTGCAG | 9820 fluorescence intensity (a.u.)
TGCAGTTTTTCTGAGATGTCTTCTAGGCATGTTCTGTTGTCGGAGTCACCTAGTGCAG | 8140 fluorescence intensity (a.u.)
TCCTCGCGACCTTAATTTACTCCTCCAATGGCCGCCGCTGCGGAGTCACCTAGTGCAG | 8600 fluorescence intensity (a.u.)
AGGACCAAGTCAAACCAGCCACATCACTGTCACGTCAGCCCGGAGTCACCTAGTGCAG | 9310 fluorescence intensity (a.u.)
GCAAGTACTTGGTGGTATATGTTGTTTGGAATAAAAAGGTCGGAGTCACCTAGTGCAG | 8320 fluorescence intensity (a.u.)
CATACGCCTCGTCGAGTTGTCATCTTGTATTCCTATCAAACGGAGTCACCTAGTGCAG | 11500 fluorescence intensity (a.u.)
AGCGCAACCATGACTTTTCCTGTTCAACTTTAATCATTCACGGAGTCACCTAGTGCAG | 8120 fluorescence intensity (a.u.)
CTATCATCTAGTCCATGCTTCCACTATATAATTTCAATTCCGGAGTCACCTAGTGCAG | 9120 fluorescence intensity (a.u.)
AGCACAGCTCAGGTCCTAGCATCTCTTCACATGGCCAACACGGAGTCACCTAGTGCAG | 8850 fluorescence intensity (a.u.)
GTTCCTTTCTTGCGGACCAATTCCGACTGCCGACGAGCGACGGAGTCACCTAGTGCAG | 9410 fluorescence intensity (a.u.)
GGTTGCCGTGCTTGGGGATGGGGAGGGTGAAATCACGTGCCGGAGTCACCTAGTGCAG | 13400 fluorescence intensity (a.u.)
TTTTCACTGGTTGCTTCTTGAAAGTATTTGTCGAGTAGTACGGAGTCACCTAGTGCAG | 8070 fluorescence intensity (a.u.)
TCTTGATTCAAAGGAGCACATCATCTCAGTACTACTCATCCGGAGTCACCTAGTGCAG | 8200 fluorescence intensity (a.u.)
CCTTTGTTTATACCTAATTACTAGAATTACTGTCGTGCACCGGAGTCACCTAGTGCAG | 8990 fluorescence intensity (a.u.)
TAACACTTTTCTAATTTATTGACACCGTATTCTTTCTGTTCGGAGTCACCTAGTGCAG | 8860 fluorescence intensity (a.u.)
TCTCTTCCTTCTCACCGATCCTGGAATGGTCTCGGAGGGTCGGAGTCACCTAGTGCAG | 8400 fluorescence intensity (a.u.)
ACACGCTACTAATTGTCAGCTTGCCTGTTACGGAGTACATCGGAGTCACCTAGTGCAG | 8100 fluorescence intensity (a.u.)
ATACCCGGTCCTACCTGTCATATATATATTACGTCTTAGACGGAGTCACCTAGTGCAG | 8410 fluorescence intensity (a.u.)
CTAATAACTTTCTTGTTTTGCGTACCCACTTAATCTTATTCGGAGTCACCTAGTGCAG | 10400 fluorescence intensity (a.u.)
GTCTTGGCGTATGTTGGCTTATATGTTGATCTTGTGTCTTCGGAGTCACCTAGTGCAG | 12300 fluorescence intensity (a.u.)

Exported field by field: part of the list above
AGCGCAACCATGACTTTTCCTGTTCAACTTTAATCATTCACGGAGTCACCTAGTGCAG
  binding signal = 8120 fluorescence intensity (a.u.)
CTATCATCTAGTCCATGCTTCCACTATATAATTTCAATTCCGGAGTCACCTAGTGCAG
  binding signal = 9120 fluorescence intensity (a.u.)
AGCACAGCTCAGGTCCTAGCATCTCTTCACATGGCCAACACGGAGTCACCTAGTGCAG
  binding signal = 8850 fluorescence intensity (a.u.)
GTTCCTTTCTTGCGGACCAATTCCGACTGCCGACGAGCGACGGAGTCACCTAGTGCAG
  binding signal = 9410 fluorescence intensity (a.u.)

The listing continues:

Sequence | binding signal
CCTTCTTCTTTATTGTTTATCCGCAACGTTGCCAAATCCTCGGAGTCACCTAGTGCAG | 8840 fluorescence intensity (a.u.)
TTGCTCTGTAGCAGCAATGGAGGGAGGAGGGTGGGTGGTGCGGAGTCACCTAGTGCAG | 11200 fluorescence intensity (a.u.)
GTCACCGCCCTCCGTTTCAGCGCCGGCCTTTGTCCGCACGCGGAGTCACCTAGTGCAG | 11800 fluorescence intensity (a.u.)
TTTTTTCCTTTTTCTTTTTCTTTTTTTTCATTTTTTTTAACGGAGTCACCTAGTGCAG | 13000 fluorescence intensity (a.u.)
CGATCTCATGGAAGCACGCCGCCGATCTGCTCATCGCATCCGGAGTCACCTAGTGCAG | 9100 fluorescence intensity (a.u.)
CTGTGCACACACGCTACGTCGTCCCGTGCGCATGTATCTCCGGAGTCACCTAGTGCAG | 8160 fluorescence intensity (a.u.)
GATAGTTCATGTTCATTCTCACTCGCTGTACTCTTAAGTACGGAGTCACCTAGTGCAG | 11400 fluorescence intensity (a.u.)
GGGTTTCCTTGAGGGTAGTTTGGGCATTATGATTTTTAATCGGAGTCACCTAGTGCAG | 15300 fluorescence intensity (a.u.)
CCACACTCCCACCACCACCACCCTCGCCGCAAAAAGGCAACGGAGTCACCTAGTGCAG | 8140 fluorescence intensity (a.u.)
TTTCTTCAGCCCCATTTGGCCATTTCATCTTCTCTCCTCTCGGAGTCACCTAGTGCAG | 9390 fluorescence intensity (a.u.)
TAAACTTTAAATTTTTCCGTCACATCATTTTAATTTCAACCGGAGTCACCTAGTGCAG | 8460 fluorescence intensity (a.u.)
TAAAAACGTGCATTCCAAATCTTTTACGCATGCTTATCATCGGAGTCACCTAGTGCAG | 8170 fluorescence intensity (a.u.)
AGTTGTATTGATGGATAGGTTGGTGAGGGGTATTAAATGGCGGAGTCACCTAGTGCAG | 8070 fluorescence intensity (a.u.)
CGGTTGATCGTCTGACGTATCCTTATCCTGTTGCTTGTCTCGGAGTCACCTAGTGCAG | 9960 fluorescence intensity (a.u.)
CTTTCAGTTTGACCACTTACTACCTTAGGTACTTTTTTGTCGGAGTCACCTAGTGCAG | 8040 fluorescence intensity (a.u.)
TTCAAATCTCTAGGACGATTCTAACTTTTCCTTGTTTTCCCGGAGTCACCTAGTGCAG | 8680 fluorescence intensity (a.u.)
CGCCCGCGGTATTTATTTTTTATTTTATTATTATTTTAATCGGAGTCACCTAGTGCAG | 9750 fluorescence intensity (a.u.)
CACCTATGATTTTGTTAGTTTTTATACATGCCAATTATATCGGAGTCACCTAGTGCAG | 8740 fluorescence intensity (a.u.)
ATACGTGATCACGCCATGCATATGCGTTCGGTTGTCCGCGCGGAGTCACCTAGTGCAG | 9450 fluorescence intensity (a.u.)
GGAGGGAGGTGTTGGATGTTAGCAGTAATCTTGTGTGCCACGGAGTCACCTAGTGCAG | 9140 fluorescence intensity (a.u.)
CCTCCGCTTCCCTCTTCTCACGTCATGATAGCCGCCGAGGCGGAGTCACCTAGTGCAG | 8740 fluorescence intensity (a.u.)
